{"source": "paper PMC8406200", "about": "“SAMase of Bacteriophage T3 Inactivates Escherichia coli’s Methionine S-Adenosyltransferase by Forming Heteropolymers” (mBio, 2021)", "molecular_target": "Neisseria gonorrhea MAT (Neisseria gonorrhea)", "test": "dynamic light scattering; 2.85 μM MAT and 11.4 μM SAMase (1:4 ratio), Tris pH 8.0, 150 mM KCl, 1 mM DTT, 500 μM SAM, preincubated 30 min at room temperature; both purified", "note": "Results are given in words; binding and its absence hold for the method and conditions named. Tags and fused reporters may be left off the sequences shown.", "data": [{"binder": "S-Adenosylmethionine lyase (SAMase) of bacteriophage T3, C-terminal His-tagged (enzyme, S-adenosylmethionine lyase (SAMase) of bacteriophage T3, UniProt P07693; gene synthesized de novo with six His codons at the 3' end; anticipated monomer size around 17 kDa; Dimer by SEC, cross-linking and cryo-EM; also called T3 SAMase; 6×His-tagged SAMase; not shown: His6, C-terminal, kept) MIFTKEPAHVFYVLVSAFRSNLCDEVNMSRHRHMVSTLRAAPGLYGSVESTDLTGCYREAISSAPTEEKTVRVRCKDKAQALNVARLACNEWEQDCVLVYKSQTHTAGLVYAKGIDGYKAERLPGSFQEVPKGAPLQGCFTIDEFGRRWQVQ", "values": [{"measurement": "binding", "value": "no binding (tested: 2.85 μM MAT and 11.4 μM SAMase)"}]}]}
